Measurements taken from patent US20190338002A1 (Pieris, published 2019).
These are yes or no findings as the source states them, for the method shown.

How the values were obtained:
[1] = molecular target: T1, human alpha CGRP (SEQ ID NO: 80) (human, not fully specified); assay: SPR Biacore 37 °C, hNGAL wildtype captured as ligand, ha CGRP (1-37) injected; run 130208_NAN-DS-047 [contd]
T1 peptide: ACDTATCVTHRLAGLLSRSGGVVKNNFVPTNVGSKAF

[2] = molecular target: T2, human beta CGRP (SEQ ID NO: 81) (human, not fully specified); assay: SPR Biacore 37 °C, hNGAL wildtype captured as ligand, hb CGRP (1-37) injected; run 130301_NAN-DS-049
T2 peptide: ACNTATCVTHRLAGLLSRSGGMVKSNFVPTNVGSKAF

[3] = molecular target: T2, human beta CGRP (SEQ ID NO: 81); assay: SPR Biacore 37 °C, hNGAL wildtype captured as ligand, hb CGRP (1-37) injected; run 130208_NAN-DS-047 [contd]
[4] = molecular target: T3, rat beta CGRP (SEQ ID NO: 83) (rat, not fully specified); assay: SPR Biacore 37 °C, hNGAL wildtype captured as ligand, rb CGRP (1-37) injected; run 130208_NAN-DS-047 [contd]
T3 peptide: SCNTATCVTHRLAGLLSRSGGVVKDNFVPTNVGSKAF

[5] = molecular target: T4, rat alpha CGRP (SEQ ID NO: 82) (rat); assay: SPR Biacore 37 °C, hNGAL wildtype captured as ligand, ra CGRP (1-37) injected; run 130301_NAN-DS-049
T4 peptide: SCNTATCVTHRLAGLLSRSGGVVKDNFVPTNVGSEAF

[6] = molecular target: T4, rat alpha CGRP (SEQ ID NO: 82); assay: SPR Biacore 37 °C, hNGAL wildtype captured as ligand, ra CGRP (1-37) injected; run 130208_NAN-DS-047 [contd]
[7] = molecular target: T1, human alpha CGRP (SEQ ID NO: 80); assay: SPR Biacore 37 °C, hNGAL wildtype captured as ligand, ha CGRP (1-37) injected; run 130301_NAN-DS-049
[8] = molecular target: T3, rat beta CGRP (SEQ ID NO: 83); assay: SPR Biacore 37 °C, hNGAL wildtype captured as ligand, rb CGRP (1-37) injected; run 130301_NAN-DS-049
[9] = molecular target: T3, rat beta CGRP (SEQ ID NO: 83); assay: SPR, Biacore T200, 37 C
[10] = molecular target: T4, rat alpha CGRP (SEQ ID NO: 82); assay: SPR, Biacore T200, 37 C
[11] = molecular target: T2, human beta CGRP (SEQ ID NO: 81); assay: SPR, Biacore T200, 37 C
[12] = molecular target: T1, human alpha CGRP (SEQ ID NO: 80); assay: SPR, Biacore T200, 37 C

B1: hNGAL wildtype (SEQ ID NO:1) (other)
chain: QDSTSDLIPAPPLSKVPLQQNFQDNQFHGKWYVVGLAGNAILREDKDPQKMYATIYELKEDKSYNVTSVLFRKKKCDYWIRTFVPGSQPGEFTLGNIKSYPGLTSYLVRVVSTNYNQHAMVFFKKVSQNREYFKITLYGRTKELTSELKENFIRFSKSLGLPENHIVFPVPIDQCIDG
notes: also called human lipocalin 2; human Lcn 2
binding [1]: no binding (tested: 30 nM (not printed on the sheet)) | binding [2]: no binding (tested: 30 nM (not printed on the sheet)) | binding [3]: no binding (tested: 30 nM (not printed on the sheet)) | binding [4]: no binding (tested: 30 nM (not printed on the sheet)) | binding [5]: no binding (tested: 30 nM (not printed on the sheet)) | binding [6]: no binding (tested: 30 nM (not printed on the sheet)) | binding [7]: no binding (tested: 30 nM (not printed on the sheet)) | binding [8]: no binding (tested: 30 nM (not printed on the sheet)) | binding [9]: no binding | binding [10]: no binding | binding [11]: no binding | binding [12]: no binding
